Laboratory results from US9987332B2, “Pharmaceutical composition for use in the treatment of a neurodegenerative disease” (SANOFI-AVENTIS DEUTSCHLAND GMBH, priority 2011, dated 2018).
At least one structure is not confirmed: it was looked up by name or label, or the drawing left a doubt.

Key:
[1] = tested on: transgenic mouse model of AD; conditions: McClean et al 2011; cited from earlier work
[2] = tested on: SH-SY5Y cells; test: LDH assay: pre-treatment of SH-SY5Y cells followed by Methyl Glyoxal stress; type: cell-based, human
[3] = tested on: SHSY-5Y cells; test: XTT assay: post-stress treatment of SHSY-5Y cells after Methyl Glyoxal (MG) and H2O2 treatment; type: cell-based, human
[4] = target: T1, GLP-1 receptors in the brain (Mus musculus, UniProt O35659); test: Measurement of cAMP in the brain (direct cAMP ELISA) after i.p. injection; type: in vivo; conditions: 25 nmol/kg bw ip., 30 min before analysis
T1 construct: 30 min post injection mice brains were immediately removed and snap frozen; from tissue; host or cells: brain of wild-type C57BL/6 mice, dosed i.p. in vivo
T1 sequence (O35659 22-463): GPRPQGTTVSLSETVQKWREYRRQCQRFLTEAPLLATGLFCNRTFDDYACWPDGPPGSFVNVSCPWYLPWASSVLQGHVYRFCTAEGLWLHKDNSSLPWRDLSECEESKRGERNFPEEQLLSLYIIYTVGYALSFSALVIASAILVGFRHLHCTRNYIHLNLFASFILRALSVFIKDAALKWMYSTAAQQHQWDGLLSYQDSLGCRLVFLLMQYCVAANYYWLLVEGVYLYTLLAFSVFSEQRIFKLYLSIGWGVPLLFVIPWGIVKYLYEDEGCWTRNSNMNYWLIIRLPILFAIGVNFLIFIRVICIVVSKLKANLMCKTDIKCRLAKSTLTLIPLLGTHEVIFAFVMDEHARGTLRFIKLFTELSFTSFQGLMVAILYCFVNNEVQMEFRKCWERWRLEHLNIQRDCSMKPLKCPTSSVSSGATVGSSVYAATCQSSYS

[5] = tested on: SHSY-5Y cells; test: XTT assay: pre-treatment of SHSY-5Y cells followed by Methyl Glyoxal (MG) stress; type: cell-based, human
[6] = tested on: progenitor cells in the dentate gyrus; test: Neuronal progenitor stem cell proliferation in the dentate gyrus (BrdU stain) after chronic i.p. injection; type: in vivo, mouse; conditions: once-daily i.p. injection 25 nmol/kg bw for 3 weeks

In the case of `CCCCCCCCCCCCCCCC(=O)N[C@@H](CCC(=O)NCCCC[C@H](NC(=O)[C@H](C)NC(=O)[C@H](C)NC(=O)[C@H](CCC(N)=O)NC(=O)CNC(=O)[C@H](CCC(=O)O)NC(=O)[C@H](CC(C)C)NC(=O)[C@H](Cc1ccc(O)cc1)NC(=O)[C@H](CO)NC(=O)[C@H](CO)NC(=O)[C@@H](NC(=O)[C@H](CC(=O)O)NC(=O)[C@H](CO)NC(=O)[C@@H](NC(=O)[C@H](Cc1ccccc1)NC(=O)[C@@H](NC(=O)CNC(=O)[C@H](CCC(=O)O)NC(=O)[C@H](C)NC(=O)[C@@H](N)Cc1cnc[nH]1)[C@@H](C)O)[C@@H](C)O)C(C)C)C(=O)N[C@@H](CCC(=O)O)C(=O)N[C@@H](Cc1ccccc1)C(=O)N[C@H](C(=O)N[C@@H](C)C(=O)N[C@@H](Cc1c[nH]c2ccccc12)C(=O)N[C@@H](CC(C)C)C(=O)N[C@H](C(=O)N[C@@H](CCCNC(=N)N)C(=O)NCC(=O)N[C@@H](CCCNC(=N)N)C(=O)NCC(=O)O)C(C)C)[C@@H](C)CC)C(=O)O` [liraglutide, Arg^34,Lys^26(N^ε(γ-glutamyl(N^α-hexadecanoyl)))GLP-1(7-37)], the “Dose at which activity was previously described” value [1] is given as 25 nmolm/kg, the “Effect of the lower doses on protection from Methyl Glyoxal stress” value ([2]; 10 or 100 nM, 1200 μM Methyl Glyoxal) is given as “showed no effect” and the “Dose sufficient/required to protect cells from 1200 μM Methyl Glyoxal stress” value ([2]; pre-treatment) is given as 200 nM. For the same compound, the “Protection of cells by post-treatment” value ([3]; 2 mM Methyl Glyoxal stress or 1 mM H2O2 stress) was “did not protect cells”, the “Number of surviving cells after stress with MG or H2O2, post-treatment” value ([3]; post-stress treatment, 600 μM and 1 mM H2O2, 1 mM and 2 mM MG for 3 hrs, XTT) was “did not protect cells” and the “cAMP in the brain compared to controls” value [4] was “significant increase of cAMP”. The “Number of surviving cells / protection, pre-treatment before stress” value ([5]; pre-treatment 4 hrs, then 400 μM and 600 μM MG, XTT) was “protected the cells”, the “Lowest dose at which pre-treatment protected the cells” value ([5]; pre-treatment before MG stress, XTT) was 100 nM and the “Dose sufficient in protecting cells from 600 μM Methyl Glyoxal stress” value ([5]; pre-treatment, 600 μM Methyl Glyoxal) was 100 nM-200 nM. For the same compound, the “Stem cell proliferation in the dentate gyrus (BrdU stain)” value [6] was “enhanced stem cell proliferation”.
